{
  "source": "patent US20030045680A1",
  "about": "“Peptidic modulators of the androgen receptor” (Praecis Pharmaceuticals Inc., priority 2001, published 2003)",
  "target": "T1, GST-androgen receptor DNA binding domain (GST-DBD) (Homo sapiens) (UniProt P10275)",
  "T1 sequence (looked up)": "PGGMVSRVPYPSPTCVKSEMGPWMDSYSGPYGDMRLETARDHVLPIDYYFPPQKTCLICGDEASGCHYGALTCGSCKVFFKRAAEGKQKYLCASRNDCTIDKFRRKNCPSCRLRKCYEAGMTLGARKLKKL",
  "experiment": "binding assay",
  "details": "electrochemiluminescence bead assay (IGEN ORIGEN), Ru-labelled anti-GST antibody, streptavidin beads; PBS pH 7.2, 100 ng/ml poly dI/dC, room temperature; purified recombinant protein; protein details: GST fusion, obtained from Dr. Steven Balk; label: 5'-biotin on SEQ 54 strand",
  "note": "The exact form of at least one protein or probe is not confirmed. Tags and fusion partners may be left off the protein sequences shown.",
  "data": [
    {"sequence": "AGTCTGGTACAGGGTGTTCTTTTTA (double strand) [biotinylated ARE duplex oligonucleotide]", "values": [
      {"measurement": "binding result", "value": "binds"}
    ]}
  ]
}
